Assay results reported in PubChem BioAssay AID330 (DTP/NCI, 2004).
The list does not hold the whole screen: it gathers tests that were run many times, whatever their T/C, doses with no T/C, and many T/C values between a quarter and a half above the control. Other doses and runs of a compound stand elsewhere. T/C: endpoint of the treated group in % of that of the vehicle group. Some entries give survivors of the animals treated and no T/C: the source files T/C as zero there, which appears to mark a toxic dose or a test without result, not a measured value. Some survivor counts are full or nearly so, which does not show that the dose was tolerated: the source hardly ever lists a survival T/C far under the control, and the zero likely stands for such cases as well. Survivors were counted at the toxicity check, usually on the fifth day, unless a day is given; later deaths do not show. Schedules are NCI's codes, read here as Q, the interval in days (D) or hours (H), X, the number of doses. Some doses were run more than once; their values stand side by side, smallest first. Some molecules as drawn cover several salts, stereoisomers or complexes of the source; a dose is that of the sample tested. Counts like (3×) say how often a value occurs here. For survival time, the PubChem record calls one and a half times the control and up active, and a quarter to a half above the control has no call in these data; cut-offs in other NCI protocols can differ.

Test system: P388 leukemia ip, CD2F1 mice, survival T/C
Assay: NCI In Vivo Anticancer Drug Screen. Data for tumor model P388 Leukemia (intraperitoneal) in CD2F1 (CDF1) mice
Conditions: T/C endpoint: median survival time, higher T/C = longer survival
[1] = dose: 100.0 mg/kg/injection, schedule: Q01DX005 (ip), vehicle: saline
[2] = dose: 200.0 mg/kg/injection, schedule: Q01DX005 (ip), vehicle: saline
[3] = dose: 400.0 mg/kg/injection, schedule: Q01DX001 (ip), vehicle: Klucel (hydroxypropylcellulose) (HPC)
[4] = dose: 50.0 mg/kg/injection, schedule: Q01DX005 (ip), vehicle: Klucel (hydroxypropylcellulose) (HPC)
[5] = dose: 200.0 mg/kg/injection, schedule: Q01DX005 (ip), vehicle: Klucel (hydroxypropylcellulose) (HPC)
[6] = dose: 200.0 mg/kg/injection, schedule: Q01DX005 (ip), vehicle: saline with Tween-80
[7] = dose: 200.0 mg/kg/injection, schedule: Q01DX009 (ip), vehicle: saline
[8] = dose: 200.0 mg/kg/injection, schedule: Q01DX009 (ip), vehicle: Klucel (hydroxypropylcellulose) (HPC)
[9] = dose: 400.0 mg/kg/injection, schedule: Q01DX001 (ip), vehicle: saline with Tween-80
[10] = dose: 400.0 mg/kg/injection, schedule: Q01DX009 (ip), vehicle: Klucel (hydroxypropylcellulose) (HPC)
[11] = dose: 50.0 mg/kg/injection, schedule: Q01DX005 (ip), vehicle: saline with Tween-80
[12] = dose: 100.0 mg/kg/injection, schedule: Q01DX005 (ip), vehicle: saline with Tween-80

CCN(CC)CCNC(=O)c1noc2cc([N+](=O)[O-])ccc12
survivor count [1]: 3 of 5 | survivor count [2]: 0 of 5

O=C1CC(c2ccccc2)C(=O)N1CN1CC=CCC1 (stereo not given)
T/C (dose: 200.0 mg/kg/injection, schedule: Q01DX001 (ip), vehicle: Klucel (hydroxypropylcellulose) (HPC)): 127 % of control | T/C [3]: 126 % of control

Cc1c(-c2ccc(C3CCCCC3)cc2)nc2ccc(F)cc2c1C(=O)O
T/C (dose: 25.0 mg/kg/injection, schedule: Q01DX005 (ip), vehicle: Klucel (hydroxypropylcellulose) (HPC)): 132 % of control | T/C [4]: 136 % of control | T/C (dose: 100.0 mg/kg/injection, schedule: Q01DX005 (ip), vehicle: Klucel (hydroxypropylcellulose) (HPC)): 146 % of control | T/C [5]: 146 % of control

C1CCN(P2(N3CCCCC3)=NP(N3CCCCC3)(N3CCCCC3)=NP(N3CCCCC3)(N3CCCCC3)=NP(N3CCCCC3)(N3CCCCC3)=N2)CC1
survivor count [6]: 6 of 6

CC(C)C1=CC2=C[C@H](O)[C@H]3C(C)(C)CCC[C@]3(C)C2=C(O)C1=O
survivor count (dose: 20.0 mg/kg/injection, schedule: Q01DX009 (ip), vehicle: saline with Tween-80): 3 of 6 and 5 of 6

C[C@]12CC[C@@H]3c4ccc(O)cc4CC[C@H]3[C@@H]1CC[C@@H]2NCCCCCCO
survivor count [5]: 6 of 6

N#Cc1c(=O)[nH]c(=O)n2c1[nH]c1ccccc12
survivor count (dose: 120.0 mg/kg/injection, schedule: Q01DX005 (ip), vehicle: saline with Tween-80): 1 of 6 | survivor count (dose: 240.0 mg/kg/injection, schedule: Q01DX005 (ip), vehicle: saline with Tween-80): 1 of 6

Cc1cncn2c(C)nnc12
survivor count (dose: 400.0 mg/kg/injection, schedule: Q04DX003 (ip), vehicle: saline): 0 of 6

COc1cc2c(c3c1c(=O)c1cc(F)ccc1n3C)C=CC(C)(C)O2
survivor count [4]: 6 of 6

COc1cccc(/C=N/Nc2cc(C)nc3cc4c(cc23)OCO4)c1
survivor count (dose: 12.5 mg/kg/injection, schedule: Q01DX005 (ip), vehicle: Klucel (hydroxypropylcellulose) (HPC)): 6 of 6 | survivor count [5]: 2 of 6

O=C(Nc1ccc(C(=O)O)cc1)Oc1ccc(N(CCCl)CCCl)cc1
survivor count (dose: 100.0 mg/kg/injection, schedule: Q01DX009 (ip), vehicle: saline with Tween-80): 6 of 6 | survivor count (dose: 150.0 mg/kg/injection, schedule: Q04DX003 (ip), vehicle: saline with Tween-80): 6 of 6 | survivor count (dose: 200.0 mg/kg/injection, schedule: Q04DX003 (ip), vehicle: saline with Tween-80): 5 of 6 | survivor count (dose: 400.0 mg/kg/injection, schedule: Q04DX003 (ip), vehicle: saline with Tween-80): 4 of 6

O=[N+]([O-])c1ccc(S(=O)(=O)OI(O)c2ccccc2)cc1
survivor count (dose: 200.0 mg/kg/injection, schedule: Q01DX009 (ip), vehicle: water): 0 of 6

C1CN1P1(N2CC2)=NP(N2CC2)(N2CC2)=NP(N2CC2)(N2CC2)=NP(N2CC2)(N2CC2)=N1
survivor count (dose: 20.0 mg/kg/injection, schedule: Q01DX009 (ip), vehicle: saline): 6 of 6 | survivor count (dose: 40.0 mg/kg/injection, schedule: Q01DX009 (ip), vehicle: saline): 6 of 6

Oc1c(CNCCCN2CCCC2)cc(Cl)c2cccnc12
survivor count [7]: 1 of 6

CC(CN(C)C)C(=O)c1ccccc1 (stereo not given)
survivor count [7]: 1 of 6

NC(=O)c1cc([N+](=O)[O-])cc([N+](=O)[O-])c1
survivor count [8]: 1 of 6

Nc1nc(N)c2c(ccc3nc(-c4ccccc4)c(-c4ccccc4)nc32)n1
survivor count [9]: 6 of 6

N#CN=[N+]([O-])c1cccc(Cl)c1
survivor count (dose: 50.0 mg/kg/injection, schedule: Q04DX003 (ip), vehicle: Klucel (hydroxypropylcellulose) (HPC)): 2 of 6

CC(=O)NC(CSC1(c2ccccc2)c2ccccc2-c2ccccc21)C(=O)O (stereo not given)
survivor count (dose: 240.0 mg/kg/injection, schedule: Q01DX005 (ip), vehicle: Klucel (hydroxypropylcellulose) (HPC)): 1 of 6

O=C(N1CCCCCC1)N1CC1
survivor count [8]: 0 of 6 | survivor count [10]: 0 of 6

O=C1C2CC3CC1CC(Cl)(C3)C2
survivor count [6]: 0 of 5

C=C(C)C1CC2(C)C(C)CC(O)CC2C(OC(=O)C=C(C)C)C1O (stereo not given)
survivor count (dose: 12.5 mg/kg/injection, schedule: Q01DX009 (ip), vehicle: Klucel (hydroxypropylcellulose) (HPC)): 6 of 6

CCN(CC)C(=O)Cn1cc([N+](=O)[O-])sc1=NC(=O)c1ccco1
survivor count [3]: 1 of 6

C/C(=N\NC(=S)/N=c1\sccn1Cc1ccccc1)c1ccccn1
T/C (dose: 12.5 mg/kg/injection, schedule: Q01DX005 (ip), vehicle: saline with Tween-80): 125 and 134 % of control | T/C (dose: 25.0 mg/kg/injection, schedule: Q01DX005 (ip), vehicle: saline with Tween-80): 135 and 137 % of control | T/C [11]: 146 % of control | survivor count [11]: 5 of 6 | survivor count [12]: 4 of 6 | survivor count [6]: 4 of 6

CN(C)CCN(Cc1ccco1)c1ccccn1
survivor count [11]: 2 of 6 and 4 of 5 | survivor count [12]: 0 of 5 | survivor count [1]: 0 of 5 and 1 of 5 | survivor count [6]: 0 of 5 | survivor count [2]: 0 of 5 (2×)

CC[N+](C)(CC)c1ccccc1
survivor count (dose: 100.0 mg/kg/injection, schedule: Q04DX002 (ip), vehicle: saline): 0 of 6

CCOC(=O)c1cc2c(=O)c3c(ccc4ccccc43)oc2n(C)c1=O
survivor count [12]: 4 of 5 | survivor count [6]: 4 of 5

O=C(O)c1cccc(O)c1O
survivor count (dose: 400.0 mg/kg/injection, schedule: Q01DX009 (ip), vehicle: saline): 0 of 6

C/C(=N\N)c1cnc(NN)nc1C
survivor count (dose: 30.0 mg/kg/injection, schedule: Q01DX005 (ip), vehicle: saline): 3 of 6 | survivor count (dose: 60.0 mg/kg/injection, schedule: Q01DX005 (ip), vehicle: saline): 3 of 6 | survivor count (dose: 120.0 mg/kg/injection, schedule: Q01DX005 (ip), vehicle: saline): 0 of 6 | survivor count (dose: 240.0 mg/kg/injection, schedule: Q01DX005 (ip), vehicle: saline): 0 of 6

C=C(C#N)C(NC(C)(C)C)c1ccccc1 (stereo not given)
survivor count (dose: 100.0 mg/kg/injection, schedule: Q01DX001 (ip), vehicle: saline with Tween-80): 3 of 6 | survivor count (dose: 200.0 mg/kg/injection, schedule: Q01DX001 (ip), vehicle: saline with Tween-80): 0 of 6 | survivor count [9]: 0 of 6

CCN(CC)CCOC(=O)C(OCCOc1ccccc1)(c1ccccc1)c1ccccc1
survivor count [5]: 0 of 6

C=CCC1OC(COC(=O)c2ccccc2)C(OC(=O)c2ccccc2)C1OC(=O)c1ccccc1 (stereo not given)
T/C (dose: 178.0 mg/kg/injection, schedule: Q01DX005 (ip), vehicle: Klucel (hydroxypropylcellulose) (HPC)): 126 % of control

O=C(N/N=C/c1cc(Br)ccc1[O-])c1ccccc1O.O=C(N/N=C/c1cc(Br)ccc1[O-])c1ccccc1O.[Co+2]
survivor count (dose: 400.0 mg/kg/injection, schedule: Q04DX002 (ip), vehicle: Klucel (hydroxypropylcellulose) (HPC)): 6 of 6

CN(C)CC1CC1N1c2ccccc2Sc2ccc(Cl)cc21 (stereo not given)
survivor count [8]: 3 of 6

Nc1nc(N)c2cc(CNc3ccc(C(=O)NC(C(=O)O)C(=O)O)cc3)ccc2n1
survivor count (dose: 0.4 mg/kg/injection, schedule: Q01DX009 (ip), vehicle: saline): 6 of 6 | survivor count (dose: 0.8 mg/kg/injection, schedule: Q01DX009 (ip), vehicle: saline): 4 of 6 | survivor count (dose: 1.6 mg/kg/injection, schedule: Q01DX009 (ip), vehicle: saline): 2 of 6 | T/C (dose: 66.0 micrograms/kg/injection, schedule: Q01DX009 (ip), vehicle: saline sonified): 131 % of control | T/C (dose: 150.0 micrograms/kg/injection, schedule: Q01DX009 (ip), vehicle: saline sonified): 127 % of control

CCN1CCC(=C(c2ccccc2)c2ccccc2)C1
survivor count [8]: 0 of 6

CN(C)c1ccc(/C=C/c2ccnc3ccccc23)cc1N
survivor count (dose: 100.0 mg/kg/injection, schedule: Q01DX009 (ip), vehicle: Klucel (hydroxypropylcellulose) (HPC)): 3 of 6 | survivor count [8]: 0 of 6 | survivor count [10]: 0 of 6
